From PubChem BioAssay AID540276 (National Center for Advancing Translational Sciences (NCATS), 2011)
Several values for one entry are separate records, joined by “and”; a condition that tells them apart may be missing. Equal values may be shown once. About 5,400 (1.8%) of roughly 300,000 compounds were called active. Inconclusive means that the source gave no clear call. Such entries were picked first, then a sample of the others. The call rests on the fitted dose curve; tested in HEK293 cells. A potency beside an inconclusive call is a rough fit, not a confirmed value.
On the % scale 0 is the no-effect control and ±100 the full control effect; potency means the concentration at half of the fitted maximal effect.

Assay: qHTS for inhibitors of binding or entry into cells for Marburg Virus
Settings: Marburg virus pseudotyped entry inhibition, cell reporter; activity change, negative = inhibition: at 37.8 µM (top of the series) unless noted
In the case of `COc1ccc([N+](=O)[O-])cc1NC(=O)COC(=O)/C=C/c1ccco1`, the Potency is reported as inconclusive: 1.12 µM [activator, full curve, poor fit]. In the case of `COc1cc(OC)cc(C(=O)Nc2nc3ccc(S(C)(=O)=O)cc3s2)c1`, the Potency is reported as inconclusive: 2.51 µM [activator, partial curve, poor fit]. In the case of `O=C(CSc1ccc(-c2ccccc2)nn1)N1CCOCC1`, the Potency is reported as inconclusive: 6.51 µM [activator, partial curve, poor fit]. With `COc1ccc(-n2nc(C(=O)NCC(=O)NC3CCCC(C)C3C)c3ccccc3c2=O)c(OC)c1` (stereo not drawn) the “activity change, negative = inhibition” value was inactive: -14.1% [at 46.1 µM]. With `Cc1ccccc1/C=C/C12NC(=O)CN1c1ccccc1C2(C)C` (stereo not drawn) the “activity change, negative = inhibition” value was inactive: -4.33%. With `CCCCNC(=S)N/N=C/c1cc(C)ccc1C` the “activity change, negative = inhibition” value was inactive: -17.4%. With `COc1ccc(Cl)cc1NC(=O)Cn1c(=O)n(Cc2ccc(F)cc2)c(=O)c2cccnc21` the “activity change, negative = inhibition” value was inactive: 1.62% [at 46.1 µM]. In the case of `O=c1c2sccc2nc(SCc2cc(=O)n3cc(Br)ccc3n2)n1Cc1ccccn1`, the Potency is reported as inconclusive: 3.98 µM [activator, single point]. In the case of `CCC(C(=O)NCCC(C)C)N(C(=O)Cn1nnc(-c2ccc(C)cc2)n1)c1cccc(O)c1` (stereo not drawn), the Potency is reported as inconclusive: 14.1 µM [inhibitor, partial curve, poor fit]. For `COc1cc(NS(=O)(=O)c2ccc(Br)cc2)c(OC)cc1NC(=O)c1ccco1`, the Potency was inconclusive: 13 µM [inhibitor, single point]. For `Cc1ccccc1OCCSc1nnc(-c2cccs2)o1`, the Potency was inconclusive: 7.94 µM [activator, partial curve]. With `Cc1nc(-c2ccccc2)nc(Cl)c1Cl` the Potency was inconclusive: 0.562 µM [inhibitor, partial curve, poor fit]. In the case of `Cc1cc2ccccc2c(=O)n1CC(=O)NC1CCCCCC1`, the Potency is reported as inconclusive: 14.1 µM [inhibitor, partial curve, poor fit]. In the case of `CCOC(=O)c1c(C)c(C(=O)Nc2ccc3c(c2)OCCO3)c(C)n1CC`, the “activity change, negative = inhibition” value is reported as inactive: -12.5%. For `O=C(Nc1cc(C(F)(F)F)ccc1N1CCOCC1)C1Cc2ccccc2CN1C(=O)c1ccco1` (stereo not drawn), the Potency was inconclusive: 18.3 µM [inhibitor, partial curve, poor fit]. In the case of `N#Cc1ccc(OCC(=O)OCCCOC(=O)COc2ccc(C#N)cc2)cc1`, the “activity change, negative = inhibition” value is reported as inactive: 21.8%. In the case of `Cc1cc(=O)n2[nH]c(-c3ccco3)nc2n1`, the Potency is reported as inconclusive: 18.3 µM [activator, single point]. In the case of `COc1ccccc1NC(=O)[C@@H]1CCCN1S(=O)(=O)c1ccc(Cl)cc1`, the Potency is reported as inconclusive: 1 µM [inhibitor, single point]. In the case of `Cc1ccnc(NS(=O)(=O)c2ccc(NC(=O)CN3C(=O)c4ccccc4S3(=O)=O)cc2)n1`, the Potency is reported as inconclusive: 3.16 µM [inhibitor, partial curve, poor fit]. With `Nc1nc(CSC(=S)N2CCN(c3ccccc3)CC2)nc(Nc2ccccc2)n1` the Potency was inconclusive: 29.1 µM [inhibitor, single point]. With `CC[C@H](C)[C@@H](NC(=O)O[C@H]1C(=O)c2cc(OC)ccc2O[C@@H]1c1ccc(OC)c(Br)c1)C(=O)OC` the Potency was “inactive”. In the case of `CCOc1ccc(C(C)=O)cc1CN1c2ccc(S(N)(=O)=O)cc2CC1C` (stereo not drawn), the Potency is reported as inconclusive: 4.47 µM [inhibitor, full curve, poor fit]. With `CCOC(=O)C1=C(C)NC(C)=C(C(=O)OCC)C1C1=COCCO1` the Potency was inconclusive: 12.6 µM [activator, single point]. With `CC(C)OC(=O)c1ccc(NCc2cc(O)ccc2O)cc1` the Potency was active: 2 µM. For `Cn1c(=O)c2[nH]c(CSCc3ccccc3)nc2n(C)c1=O`, the Potency was inconclusive: 3.98 µM [inhibitor, single point]. For `Nn1c(SCc2ccc(F)cc2)nnc1-c1ccccn1`, the “activity change, negative = inhibition” value was inactive: 29.6% [at 46.1 µM]. With `COc1cccc(NC(=O)NC2CC(=O)N(c3ccc4c(c3)OCCO4)C2)c1` (stereo not drawn) the Potency was inconclusive: 6.31 µM [activator, full curve, poor fit]. For `CC(=O)c1c[nH]c(C(=O)NCC2CCCO2)c1` (stereo not drawn), the “activity change, negative = inhibition” value was inactive: -0.998%. With `O=C(O)c1cccnc1Cl` the “activity change, negative = inhibition” value was inactive: -0.672%. In the case of `O=C(CSc1ccccc1)Nc1nnc(/C=C/c2ccccc2)s1`, the Potency is reported as inconclusive: 12.6 µM [inhibitor, partial curve, poor fit]. For `CCc1ccc(-c2nc(CN3CCC(C(=O)NCCN(CC)c4ccccc4)CC3)c(C)o2)cc1`, the “activity change, negative = inhibition” value was inactive: -8.2%. For `Clc1ccc(NCc2nncn2-c2ccccc2)cc1`, the Potency was inconclusive: 14.1 µM [activator, single point]. With `O=C(/C(=C(\O)c1ccccc1)c1nc2ccccc2[nH]1)c1ccccc1` the Potency was inconclusive: 22.4 µM [inhibitor, single point]. For `Cn1cc(C(=O)OCC(=O)NC2CCCC2)c2ccccc21`, the Potency was inconclusive: 5.62 µM [activator, single point]. For `CCC(C)NCCCCOc1ccc(Cl)cc1C` (stereo not drawn), the Potency was inconclusive: 11.6 µM [inhibitor, partial curve, poor fit]. For `COc1cc(C(=O)Nc2cc(C(F)(F)F)ccc2-n2cncn2)cc(OC)c1OC`, the Potency was inconclusive: 7.94 µM [inhibitor, partial curve, poor fit]. For `CCCCNC(=O)Nc1nc2ccc(CC)cc2s1`, the Potency was inconclusive: 14.1 µM [inhibitor, single point]. In the case of `COc1ccc(-c2onc(C)c2-c2ccc(C(=O)OC(C)C)o2)c(O)c1`, the Potency is reported as inconclusive: 35.5 µM [inhibitor, single point]. For `COc1ccccc1N1CCN(CC(=O)NC(=O)NCc2ccco2)CC1`, the Potency was inconclusive: 31.6 µM [activator, single point]. In the case of `CC(=O)c1sc2nc(-c3ccc(C)cc3)c3c(c2c1N)CCCC3`, the Potency is reported as inconclusive: 11.2 µM [inhibitor, partial curve]. In the case of `CCN1CCN(C(=O)c2nn(-c3ccc(OC)cc3)c(=O)c3c2c2ccccc2n3C)CC1`, the “activity change, negative = inhibition” value is reported as inactive: -10.1%. With `CC(=O)Nc1ccc(/C(C)=N/Nc2nc(Nc3cccc4ccccc34)nc(N3CCOCC3)n2)cc1` the Potency was active: 1.41 µM. In the case of `Cc1c(Cl)cccc1NC(=O)COC(=O)c1c2c(nc3ccccc13)CCN(Cc1ccccc1)C2`, the Potency is reported as active: 2.59 µM. In the case of `COc1cc(CN(C(=S)NCC(=O)NC2CCCC2)C2CCCC2)cc(OC)c1OC`, the “activity change, negative = inhibition” value is reported as inactive: -4.21%. With `O=C1CCCc2oc3c(c21)CCCC3` the “activity change, negative = inhibition” value was inactive: 12.5% [at 46.1 µM]. With `CSc1ccc(CCNC(=O)CN2C(=O)COc3ccc(S(=O)(=O)N4CCCCCC4)cc32)cc1` the Potency was inconclusive: 20 µM [inhibitor, single point]. For `CC(C)(C)C(=O)NC(=S)Nc1ccc(S(=O)(=O)Nc2nccs2)cc1`, the Potency was inconclusive: 14.1 µM [inhibitor, single point]. In the case of `Cc1nn(-c2ccccc2)c2sc(C(=O)c3c(N)n(C)c(=O)n(C)c3=O)cc12`, the “activity change, negative = inhibition” value is reported as inactive: -9.81%. In the case of `CC(C)(C)c1cc(Br)c(O)c(N=Nc2ccc(S(=O)(=O)N3CCOCC3)cc2)c1`, the “activity change, negative = inhibition” value is reported as inactive: -26.1% [at 46.1 µM]. For `CN1CCN(c2nc(-c3cccs3)cs2)CC1`, the Potency was inconclusive: 3.55 µM [activator, full curve]. With `CC1CCN(S(=O)(=O)c2cc(C(=O)N3CCN(c4ncccn4)CC3)ccc2Br)CC1` the Potency was inconclusive: 8.91 µM [inhibitor, partial curve]. For `Oc1ccc(NCc2ccccc2OCc2ccccc2)cc1`, the Potency was “inactive and inconclusive: 35.5 µM [inhibitor, single point]”. For `CCOc1cc(C(=O)N/N=C/c2ccsc2)cc(OCC)c1OCC`, the Potency was inconclusive: 18.4 µM [inhibitor, single point]. In the case of `FC(F)(F)c1nc(N2CCN(c3ccccc3)CC2)nc2c1CCCCC2`, the Potency is reported as inconclusive: 5.17 µM [inhibitor, partial curve, poor fit]. In the case of `O=C(COC(=O)/C=C/c1ccccc1)NCc1ccccc1Cl`, the Potency is reported as inconclusive: 35.5 µM [activator, single point]. In the case of `Cc1ccc(Nc2cc(C)nc(NCc3ccccc3)n2)cc1`, the Potency is reported as active: 8.2 µM. In the case of `CCN(CC)CC(O)c1ccc(C2CCCC2)cc1` (stereo not drawn), the Potency is reported as inconclusive: 14.6 µM [inhibitor, partial curve, poor fit]. In the case of `CC(C)(C)C(=O)NC(=S)NNC(=O)c1ccc(Cl)cc1Cl`, the Potency is reported as inconclusive: 8.91 µM [inhibitor, partial curve, poor fit]. With `O=C(COC(=O)CNC(=O)C1CCCCC1)Nc1ccc(F)c([N+](=O)[O-])c1` the “activity change, negative = inhibition” value was inactive: -0.0506%. In the case of `CCOC(=O)Nc1sc2c(c1C#N)CCC(C)C2` (stereo not drawn), the Potency is reported as inconclusive: 11.2 µM [activator, partial curve, poor fit]. In the case of `Cn1cccc1/C=N/n1c(-c2ccc(Cl)cc2)n[nH]c1=S`, the Potency is reported as inconclusive: 35.5 µM [inhibitor, single point]. In the case of `CSc1ccc(/C=N/Nc2nc(C)cc(=O)[nH]2)cc1`, the “activity change, negative = inhibition” value is reported as inactive: -4.09% [at 46.1 µM]. In the case of `O=C(CN1CCN(c2ccccn2)CC1)N(c1ccccc1)c1ccc2ccccc2c1`, the Potency is reported as inconclusive: 25.1 µM [inhibitor, single point]. With `COc1ccccc1C(C)Nc1nc(-c2cccnc2)nc2ccccc12` (stereo not drawn) the Potency was inconclusive: 10 µM [inhibitor, partial curve, poor fit]. For `O=C(CSCc1ccc([N+](=O)[O-])cc1)NC1CCCCCC1`, the “activity change, negative = inhibition” value was inactive: -16.8% [at 46.1 µM]. For `CN1C(=O)c2ccccc2Sc2ccc(NC(=O)N3CCN(c4ccc(F)cc4)CC3)cc21`, the Potency was inconclusive: 15.8 µM [inhibitor, single point]. For `COc1ccc(/C=N/Nc2nncc3ccccc23)c(OC)c1`, the Potency was inconclusive: 0.82 µM [activator, full curve, poor fit]. With `CCCn1cnc2scc(-c3ccc(C)c(C)c3)c2c1=O` the Potency was inconclusive: 1.41 µM [inhibitor, partial curve, poor fit].
